We go through 1 molecule from PMC4133371.

Amino acid sequences for entries named in this document (tags omitted). Residues count along the entry.
UniProt P09803, residues 734-884: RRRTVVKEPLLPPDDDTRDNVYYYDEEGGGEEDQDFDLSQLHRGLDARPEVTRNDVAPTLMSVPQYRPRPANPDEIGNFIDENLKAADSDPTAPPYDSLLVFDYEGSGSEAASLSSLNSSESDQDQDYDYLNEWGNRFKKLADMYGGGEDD

The assay deals with DsRed-tagged wild-type E-cadherin cytoplasmic domain (DECT) (UniProt P09803). Nature of the assay: co-IP; anti-FLAG mAb preabsorbed to protein G-Sepharose; lysates of MDCK stable transfectants (25 mM Tris-HCl pH 7.4, 1% Triton X-100, 2 mM EDTA); immunoblot with anti-β-catenin or anti-plakoglobin. On the technique in general: In western blotting, separated proteins are transferred to a membrane and probed.

No constants are given. Whether binding was seen depends on the method and setting. In cells and extracts the contact can be indirect. Some binding calls cover weakened binding; strength is not graded here.

B1: β-catenin (protein, UniProt B6V8E6 1-781)
chain: MATQADLMELDMAMEPDRKAAVSHWQQQSYLDSGIHSGATTTAPSLSGKGNPEEEDVDTTQVLYEWEQGFSQSFTQEQVADIDGQYAMTRAQRVRAAMFPETLDEGMQIPSTQFDAAHPTNVQRLAEPSQMLKHAVVNLINYQDDAELATRAIPELTKLLNDEDQVVVNKAAVMVHQLSKKEASRHAIMRSPQMVSAIVRTMQNTNDVETARCTAGTLHNLSHHREGLLAIFKSGGIPALVKMLGSPVDSVLFYAITTLHNLLLHQEGAKMAVRLAGGLQKMVALLNKTNVKFLAITTDCLQILAYGNQESKLIILASGGPQALVNIMRTYTYEKLLWTTSRVLKVLSVCSSNKPAIVEAGGMQALGLHLTDPSQRLVQNCLWTLRNLSDAATKQEGMEGLLGTLVQLLGSDDINVVTCAAGILSNLTCNNYKNKMMVCQVGGIEALVRTVLRAGDREDITEPAICALRHLTSRHQEAEMAQNAVRLHYGLPVVVKLLHPPSHWPLIKATVGLIRNLALCPANHAPLREQGAIPRLVQLLVRAHQDTQRRTSMGGTQQQFVEGVRMEEIVEGCTGALHILARDVHNRIVIRGLNTIPLFVQLLYSPIENIQRVAAGVLCELAQDKEAAEAIEAEGATAPLTELLHSRNEGVATYAAAVLFRMSEDKPQDYKKRLSVELTSSLFRTEPMAWNETADLGLDIGAQGEPLGYRQDDPSYRSFHSGGYGQDALGMDPMMEHEMGGHHPGADYPVDGLPDLGHAQDLMDGLPPGDSNQLAWFDTDL
Take B1: the binding entry is reported as “binds”.
